Laboratory results as given in PubChem BioAssay AID1259354 (Paczesny and Yang Labs, IUPUI and University of Michigan, 2018).
“And” between values parts separate entries of the source, which are not always exact repeats. Equal entries are not always repeated. Among all 78,000 compounds or so, about 1,800 (2.3%) were called active. The inconclusive results got no clear call from the source; some entries with a clear call stand among them for comparison. Rule as the data show it: active = inhibition above about 30%; inconclusive = mostly about 10% to 28%; inactive = weaker than that.

The chains behind the UniProt entries cited, without tags or fusion partners. Where a name states a change or a piece, a line headed by the entry shows the natural chain unless it says otherwise.
UniProt Q01638: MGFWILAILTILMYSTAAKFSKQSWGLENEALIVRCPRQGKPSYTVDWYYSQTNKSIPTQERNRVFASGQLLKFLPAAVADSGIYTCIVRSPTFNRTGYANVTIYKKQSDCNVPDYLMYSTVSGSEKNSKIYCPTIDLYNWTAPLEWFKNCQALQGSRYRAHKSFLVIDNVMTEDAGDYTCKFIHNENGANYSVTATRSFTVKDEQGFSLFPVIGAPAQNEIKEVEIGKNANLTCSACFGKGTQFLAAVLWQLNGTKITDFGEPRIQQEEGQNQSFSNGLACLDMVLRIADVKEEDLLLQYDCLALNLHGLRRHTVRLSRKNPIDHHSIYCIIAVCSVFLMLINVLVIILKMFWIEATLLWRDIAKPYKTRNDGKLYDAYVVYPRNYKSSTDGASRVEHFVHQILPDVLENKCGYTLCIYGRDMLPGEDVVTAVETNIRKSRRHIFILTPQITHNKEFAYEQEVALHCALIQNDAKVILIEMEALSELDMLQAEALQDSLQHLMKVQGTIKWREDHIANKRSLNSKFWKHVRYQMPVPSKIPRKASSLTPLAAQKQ

These compounds were tested against Interleukin-1 receptor-like 1 (Homo sapiens) (UniProt Q01638) (assay: blocks human ST2 binding to IL-33, primary screen, biochemical, AlphaLISA (AID 1259354)). Conditions: AlphaLISA ST2-Fc/biotin-IL-33 interaction, 1 h; at 17 µM, hits give high values.
In the case of `CCOc1cc(C=O)cc(I)c1OCC(=O)O`, the inhibition is reported as “inactive”. For `N#C/C(=C\c1ccccc1[N+](=O)[O-])c1nc(-c2ccccc2)cs1`, the inhibition was active: 50%. `CCOc1ccc(N(CC)C(=O)c2cc3cc4ccc(OC)cc4nc3o2)cc1` was tested, and the inhibition was inconclusive: 23% and inconclusive: 11%. In the case of `O=C(C1CC1)N1CC[C@H](c2nc3ccccc3s2)C1`, the inhibition is reported as inconclusive: 26%. With `CC(C)NC(=O)CNC(=O)C1(c2ccccc2F)CC1` the inhibition was “inactive”. `Cc1c(C(=O)NCc2cccnc2)oc2ccc(S(=O)(=O)N3CCC(C)CC3)cc12` was tested, and the inhibition was “inactive”. For `Cc1ccc(S(=O)(=O)N2CCN(S(C)(=O)=O)C2c2ccccc2)cc1` (stereo not given), the inhibition was “inactive”. `CCOc1ccc(-c2cn(-c3ccc(Cl)cc3)c(=O)[nH]2)cc1` was tested, and the inhibition was inconclusive: 21%. For `COc1ccccc1N1CCN(C(=O)c2cccc(C)c2)CC1`, the inhibition was inconclusive: 23%. `COc1cccc(CN2CCN(C(=O)c3cnn4cc(C)cnc34)CC2=O)c1` was tested, and the inhibition was inconclusive: 12%. `COc1ccc(C(=O)Nc2cccc(OCc3cc(=O)n4ccc(C)cc4n3)c2)cc1OC` was tested, and the inhibition was “inactive”. `CC(=O)c1ccc(F)c(-c2cc(C)cc3c2OC(CNC(=O)[C@@H]2C[C@@H]4C=C[C@H]2C4)C3)c1` (stereo not given in full) was tested, and the inhibition was inconclusive: 14%. `O=C(c1cccc2nccnc12)N1[C@H]2CCNC[C@@H]1CC2` was tested, and the inhibition was “inactive”. In the case of `COc1ccccc1-n1c(SCC(=O)Nc2ccc(C)cc2)nc2c(c1=O)SCC2`, the inhibition is reported as inconclusive: 18%. With `CCCNC(=O)C1CCC(Cn2c(=O)c3sccc3n(CC(=O)Nc3ccc(C)cc3)c2=O)CC1` (stereo not given) the inhibition was inconclusive: 11%. With `CCOC(=O)CN1C(=O)CC(C(=O)Nc2cccc(Cl)c2)SC1=Nc1ccc(F)cc1` (stereo not given) the inhibition was inconclusive: 10%. `CC(=O)Nc1ccc(Cl)c(C(=O)NC(CCn2ccnc2)c2ccccc2)c1` (stereo not given) was tested, and the inhibition was inconclusive: 13%. In the case of `Cc1sc2c(c1C)c(=O)n(CCc1ccccc1)c(=O)n2Cc1cccnc1`, the inhibition is reported as “inactive”. With `Cc1cnc(SCCN2CCOCC2)nc1C1CCCN(C(=O)Cc2c(F)ccc(F)c2F)C1` (stereo not given) the inhibition was inconclusive: 17%. `Cc1ccc(C2C3=C(CCCC3=O)Nc3ccccc3N2C(=O)c2ccccc2)cc1` (stereo not given) was tested, and the inhibition was inconclusive: 15%. For `COC(=O)C1C(=O)C2=C(CC1C)NC(C)=C(C(=O)OC1CCCC1)C2c1ccccc1OC` (stereo not given), the inhibition was “inactive”. `COc1ccc(-n2ccnc2CN2CCN(CC3CCCCC3)C(CCO)C2)cc1` (stereo not given) was tested, and the inhibition was “inactive”. With `CC(C)(O)C#Cc1ccc(C(=O)N2CCN(c3ccc([N+](=O)[O-])cc3)CC2)o1` the inhibition was inconclusive: 15%. With `Cn1cnnc1C1CCN(C(=O)c2ccccc2C2CCNC2)CC1` (stereo not given) the inhibition was inconclusive: 25%. `CCCCc1ncc(CN2CCc3[nH]cnc3C2c2cccc(O)c2)[nH]1` (stereo not given) was tested, and the inhibition was active: 37%. In the case of `COc1cc(OC)c(NC(=O)CSc2c3c(nc4ccccc24)CCC3)cc1Cl`, the inhibition is reported as inconclusive: 10%. In the case of `COCCS(=O)(=O)c1ncc(CN2CCc3sccc3C2)n1Cc1ccccc1`, the inhibition is reported as inconclusive: 10%. In the case of `OC(CNCCc1ccccc1)CN1c2ccccc2Sc2ccccc21` (stereo not given), the inhibition is reported as inconclusive: 17%. `NC(=O)COc1ccc(/C=C2/N=C(c3ccccc3Cl)OC2=O)cc1` was tested, and the inhibition was inconclusive: 26%. In the case of `O=c1c2sccc2n(Cc2cccc(F)c2)c(=O)n1-c1ccc(F)cc1`, the inhibition is reported as inconclusive: 10%. In the case of `Cc1cc(C(=O)N(CC(C)C)CC(C)C)ccc1[N+](=O)[O-]`, the inhibition is reported as inconclusive: 14%. With `O=C(CCS(=O)(=O)c1ccc(Br)s1)Nc1cccc(Cl)c1` the inhibition was “inactive”. In the case of `CC(C)c1nnnn1[C@H]1CO[C@H]2[C@@H]1OC[C@H]2OC(=O)Nc1ccc(Oc2ccccc2)cc1`, the inhibition is reported as inconclusive: 12%. For `Cn1ccnc1SCCNC(=O)c1ccc2nc(C3CC3)oc2c1`, the inhibition was inconclusive: 10%. In the case of `O=C(Nc1ccc(Cl)c(-c2nc3ccccc3s2)c1)c1cccnc1`, the inhibition is reported as inconclusive: 16%. For `N#Cc1c(C(F)(F)F)cc(-c2ccccc2)nc1SCC(=O)Nc1ccc(C(N)=O)cc1`, the inhibition was inconclusive: 15%. With `Cc1occc1C(=O)N(C)C(Cc1ccccc1F)C1CCN(C(=O)c2cc3ccccc3o2)CC1` (stereo not given) the inhibition was inconclusive: 18%. For `CC(C)NC(=O)C1CCN(c2ccc(-c3cccs3)nn2)CC1`, the inhibition was “inactive”. `COC(=O)C1C(=O)C2=C(CC1C)NC(C)=C(C(=O)OCCOC(C)C)C2c1ccc(Cl)cc1` (stereo not given) was tested, and the inhibition was inconclusive: 14%. In the case of `CCN1CCc2c(sc(NC(=O)c3sc4ccccc4c3Cl)c2C(=O)OC)C1`, the inhibition is reported as inconclusive: 11%. For `CCCC12CN3CC(CCC)(CN(C1)C3c1ccc(O)c(OC)c1)C2=O` (stereo not given), the inhibition was inconclusive: 12%. For `O=c1[nH]cnc2sc3c(c12)CCCC3`, the inhibition was inconclusive: 14%. With `CC1CCC(NC(=O)C(NS(=O)(=O)c2ccc3c(c2)oc(=O)n3C)C(C)C)CC1` (stereo not given) the inhibition was “inactive”. With `CCC(=O)N1c2ccccc2-c2nnc(SC)nc2OC1c1cccc(OC)c1OC` (stereo not given) the inhibition was inconclusive: 12%. With `COc1ccc(N2CCN(c3ncnc4sc(C(=O)N5CCCC5)c(C)c34)CC2)cc1` the inhibition was inconclusive: 19%. `COc1ccc(Nc2cc(C)nc(N3CCN(S(=O)(=O)c4ccc(F)cc4)CC3)n2)cc1` was tested, and the inhibition was inconclusive: 17%. With `CC(C)(C)c1ccc(C(=O)Nc2ccc(Cl)cn2)cc1` the inhibition was inconclusive: 15%. `O=[N+]([O-])c1ccc(-c2cn3c(n2)sc2ccccc23)cc1` was tested, and the inhibition was inconclusive: 12%. `O=C(NCc1ccccc1)c1nn(CCO)c2c1CN(C1CCSC1)CC2` (stereo not given) was tested, and the inhibition was inconclusive: 20%. With `O=[N+]([O-])c1cccc(-c2ccc(CN3CCN(c4ccccc4)CC3)o2)c1` the inhibition was inconclusive: 24%. For `Cc1ccc(Nc2ncnc3c2cnn3-c2ccccc2)cc1`, the inhibition was inconclusive: 11%. `O=C1/C(=C/c2ccc([N+](=O)[O-])cc2)CC/C1=C\c1ccc([N+](=O)[O-])cc1` was tested, and the inhibition was inconclusive: 16%. For `CC(C)(C)c1ccc(S(=O)(=O)NCc2nc3cccnc3n2Cc2ccccc2)cc1`, the inhibition was “inactive”. `COc1cccc(-c2n[nH]c(=O)[nH]2)c1` was tested, and the inhibition was inconclusive: 10%. With `O=Cc1ccc(OCc2cccc(F)c2)cc1` the inhibition was “inactive”. `Cc1[nH]n(-c2ccc(Cl)cc2)c(=O)c1C=Nc1cccc(Nc2ccccc2)c1` was tested, and the inhibition was active: 30%. With `O=C1NC(=S)S/C1=C\c1cc(Br)ccc1OCc1ccccc1Br` the inhibition was inconclusive: 13%. In the case of `Cc1ccsc1CN1CCN(c2ccc([N+](=O)[O-])cc2)CC1`, the inhibition is reported as inconclusive: 21%. In the case of `CCN(CCn1cccn1)C(=O)CC1C(=O)NCCN1Cc1cccs1` (stereo not given), the inhibition is reported as “inactive”. In the case of `CCCCNC(=O)CCS(=O)(=O)c1cc(Br)cc2c1N(C(C)=O)CC2`, the inhibition is reported as “inactive”. In the case of `Cc1oc(C(C)(C)C)cc1C(=O)Nc1ccc2c(c1)OCCO2`, the inhibition is reported as inconclusive: 14%. For `O=C(CN1C(=O)/C(=C/c2ccccc2F)Sc2ccccc21)NCC1CCCO1` (stereo not given), the inhibition was inconclusive: 21%. For `Cn1nc(C(=O)NCc2cccs2)c2c1CCC(NCC(C)(C)N1CCOCC1)C2` (stereo not given), the inhibition was inconclusive: 18%. `N#CC1CC(c2ccccc2)=NN1c1ccccc1` (stereo not given) was tested, and the inhibition was active: 96%. For `O=C1Nc2cc(Cl)c(Cl)cc2N(O)N1c1ccccc1C(F)(F)F`, the inhibition was “inactive”. With `CCOCCCNC(=O)C1(O)c2cc(Br)ccc2NC(=O)N1c1ccc(CC)cc1` (stereo not given) the inhibition was inconclusive: 20%. With `O=C1N=c2ccc(Br)cc2=C1c1sc(=O)[nH]c1O` the inhibition was “inactive”. With `COC(=O)c1ccc(C(=O)Nc2sc3c(c2-c2nc4ccccc4s2)CCN(C)C3)cc1` the inhibition was inconclusive: 26%. In the case of `CC(=O)N1N=C(c2ccc(C)cc2)CC1c1cc2cc3c(cc2nc1Cl)OCO3` (stereo not given), the inhibition is reported as inconclusive: 11%. `Cc1ccc(CNC(=O)CSC2=Nc3ccccc3C3=NC(C(C)C)C(=O)N23)cc1` (stereo not given) was tested, and the inhibition was “inactive”. For `CC(C)Oc1ccc(CN2CCCC(CCC(=O)Nc3ccccc3F)C2)cc1` (stereo not given), the inhibition was inconclusive: 29%. With `CCOC(=O)c1sc2ncnc(N3CCN(c4ccc(OC)cc4)CC3)c2c1C` the inhibition was inconclusive: 20%. For `CCOC(=O)c1cn(Cc2csc(N)n2)cc(Oc2ccccc2)c1=O`, the inhibition was inconclusive: 13%. `COC(=O)[C@@H](NC(=O)c1cc(COc2ccc3c(c2)CCCC3)on1)C(C)C` was tested, and the inhibition was inconclusive: 27%. With `COc1cccc(NC(=O)O[C@@H]2CO[C@H]3[C@@H]2OC[C@@H]3Nc2nccc(-c3ccc4c(c3)OCO4)n2)c1` the inhibition was inconclusive: 11%. `COc1cc(C(=O)O/N=C2\C=CC(=O)C(C)=C2C)cc(OC)c1OC` was tested, and the inhibition was inconclusive: 18%. In the case of `CSc1cccc(NC(=O)CN(c2ccc([N+](=O)[O-])cc2)S(=O)(=O)c2ccccc2)c1`, the inhibition is reported as inconclusive: 13%. For `CCSc1nnc2c(n1)OC(c1cc(OC)ccc1OC)Nc1ccccc1-2` (stereo not given), the inhibition was “inactive”. With `CCOc1ccc(CNc2ccc3c(c2)ncn3CC)cc1` the inhibition was inconclusive: 14%. With `O=c1nc(/C=C/c2ccc(Br)cc2)oc2ccccc12` the inhibition was inconclusive: 12%. In the case of `N#CCCN(CCc1ccccc1)S(=O)(=O)c1ccc(-c2ccc([N+](=O)[O-])cc2)cc1`, the inhibition is reported as inconclusive: 22%. For `CCOC(=O)C1(CCOC)CCN(Cc2cnn(C)c2)CC1`, the inhibition was “inactive”. With `COc1ccc(C2(C(=O)Nc3ccc(C)c(C)c3)CCOCC2)cc1OC` the inhibition was inconclusive: 10%. With `CC(=O)N[C@@H]1c2ccccc2C2(CCN(Cc3cccc4nccnc34)CC2)[C@H]1OCc1ccccc1` the inhibition was inconclusive: 11%. In the case of `Cc1c(C(=O)NN)sc(-c2ccccc2)c1C#N`, the inhibition is reported as inconclusive: 20%. In the case of `COc1ccc(-c2ccc(CCC(=O)O)n2-c2ccc(O)cc2)cc1`, the inhibition is reported as inconclusive: 16%. In the case of `CC(C)NC(=O)CNC(=O)CN1CCCCCCC1`, the inhibition is reported as inconclusive: 14%. For `CC1=CC(C)(C)Nc2ccc(OC(=O)CN3C(=O)CCC3=O)cc21`, the inhibition was inconclusive: 21%. `C=C(CCCCCCCC(=O)O)C(=O)OC` was tested, and the inhibition was inconclusive: 16%. `CCOc1cccc(C2NC(=O)NC(C)=C2C(=O)OCCOC)c1` (stereo not given) was tested, and the inhibition was “inactive”.
